Experimental data reported in patent US20230303503A1, “CELL ACTIVATABLE IRON CHELATORS” (BOARD OF REGENTS, THE UNIVERSITY OF TEXAS SYSTEM, priority 2020, published 2023).
At least one compound was matched to its structure with a doubt left. Some results were stated once for a whole list of compounds, not compound by compound.

How the values were obtained:
[1] = tested on: Pseudomonas aeruginosa (ATCC 27853); experiment: Bacterial growth inhibition; assay type: cell-based
Experimental: (§1) Similarly, the bacterial inhibitory effect of the present ExJade derivatives was then evaluated. Initial tests were focused on two Gram-negative, ESKAPE bacteria (Mulani et al., 2019), Pseudomonas aeruginosa (ATCC 27853) and Klebsiella pneumoniae (ATCC 13883). Arbekacin, an FDA-approved aminoglycoside-based antibiotic, was used as positive control.
This observation confirms the Fe(III) chelation dependent inhibitory activity. Due to the Fe(III) chelation dependent nature of the ExJade derivatives and to illustrate their potential “real life” utility, the inhibitory activity of ExBT and ExPhos against MRSA were evaluated in a blood containing medium consisting of agar and defibrillated amniotic blood (Filipowicz et al., 2003).

[2] = tested on: MRSA biofilms; experiment: Live/dead biofilm viability assay on glass slides; assay type: cell-based, Staphylococcus aureus; settings: CFP-SUL 16 µg/mL alone or combined with chelator 64 µg/mL
Experimental: (§2) FIGS. 11A & 11B show biofilm experiments. (FIG. 11A) Evaluation of CFP-SUL (cefoperazone-sulbactam; 16 µg/mL), CFP-SUL@ExBT (16 µg/mL@64 µg/mL), CFP-SUL@deferasirox (16 µg/mL@64 µg/mL), and CFP-SUL@ExPhos (16 µg/mL@64 µg/mL) for the treatment of P. aeruginosa and MRSA biofilms. Processed 3D images of P. aeruginosa and MRSA biofilms on glass slides using the live/dead biofilm viability assay. Distributions of PI-stained (red, dead bacteria) and Syto9-stained (green, live bacteria) (FIG. 11B) P. aeruginosa and MRSA biovolumes and CFU counts (purple dots) for the above groups. Biovolume data are mean values of three independent replicates.
(§3) Biofilm experiments were carried out on glass slides with both Pseudomonas aeruginosa and MRSA. The therapeutic performance of the broad-spectrum antibiotic cefoperazonesulbactam (CFP-SUL) (Sheu et al., 2020) was evaluated on its own and in combination with deferasirox, ExBT, and ExPhos using the live/dead biofilm caption viability assay (propidium iodide (PI): dead, red; Syto9: live, green).

[3] = tested on: Klebsiella pneumoniae (ATCC 13883); experiment: Bacterial growth inhibition; assay type: cell-based
Experimental: as §1

[4] = tested on: P. aeruginosa biofilms; experiment: Live/dead biofilm viability assay on glass slides; assay type: cell-based, Pseudomonas aeruginosa; settings: CFP-SUL 16 µg/mL alone or combined with chelator 64 µg/mL
Experimental: as §2, §3

[5] = tested on: A549 human lung cancer cell line; experiment: MTT cell viability / antiproliferative assay in A549 cells; assay type: cell-based; settings: A549, 72 h
Experimental: Cell culture. A549 cells (ATCC® CCL-185™) were maintained in growth medium consisting of RPMI 1640 Medium (Sigma-Aldrich, MO, USA) supplemented with 10% fetal bovine serum (Sigma-Aldrich, MO, USA) and 2% Penicillin/Streptomycin (Sigma-Aldrich, MO, USA). Cells were kept in a humidified atmosphere of 5% CO2 and 95% air at 37° C. and were split when they reached 90% confluency.
Cell viability assay. 1500 cells per well were plated on a 96-well plate (12 rows × 8 wells per row) in 100 µL growth medium and kept at 37° C. under 5% CO2. 24 h after seeding, cells were treated with another 100 µL growth medium containing different concentrations of the drug under evaluation. […] The highest drug concentration evaluated was 250 µM and lower concentrations were produced via serial dilution by a factor of 3. […] The absorbance of the solutions was measured at 540 nm with an M5 microplate reader (Molecular Devices, USA) and 0.33 absorbance units were subtracted from all wells (this absorbance value corresponds to wells containing DMSO without dye - control). The absorbance of each row of wells were averaged and were directly proportional to the number of viable cells after drug treatment.
The antiproliferative activity of compounds 1-10 was evaluated in A549 lung cancer cells, a cell line with a well- established sensitivity to iron imbalance (Loza-Rosas et al., 2017; Ohara et al., 2013). […]

SMILES | inhibition of bacterial growth [1] | antibiofilm effect [2] | inhibition of bacterial growth [3] | antibiofilm effect [4] | times more cytotoxic than the parent chelator 1 [5]
O=C(O)c1ccc(-n2nc(-c3ccccc3O)nc2-c2ccccc2O)cc1 [Compound 1, deferasirox, reference compound] | capable of inhibiting the growth | enhanced | capable of inhibiting the growth | enhanced | 
COC(=O)c1ccc(-n2nc(-c3ccccc3O)nc2-c2ccccc2O)cc1 [Compound 2] |  |  |  |  | 2-3 times
O=C(c1ccc(-n2nc(-c3ccccc3O)nc2-c2ccccc2O)cc1)N1CCOCC1 [Compound 4] |  |  |  |  | 2-3 times
